Measurements published in the supplement of paper PMC4604168 (melanoma cell lines).
This is one part of the list. Repeats are few or missing, and single values can be far off.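 Cells were imaged in 1,536-well plates, and nuclei stained with an antibody against cleaved PARP were counted against all DNA-stained nuclei to give the apoptosis fraction. Screening doses were chosen to leave most cells alive, and resting and induced cleaved-PARP levels differ strongly between cell lines.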

System: WM451Lu
Experiment: cleaved PARP positive nuclei fraction relative to DMSO control; melanoma cells; higher = more apoptosis
Details: library dose: low library concentration; 72 h

Row | Structure (SMILES) | cleaved PARP positive nuclei fraction
1 | C=CCNC1=C2C[C@@H](C)C[C@H](OC)[C@H](O)[C@@H](C)/C=C(\C)[C@H](OC(N)=O)[C@@H](OC)/C=C\C=C(/C)C(=O)NC(=CC1=O)C2=O [Tanespimycin] + OCc1c[nH]c2ccccc12 [Indole-3-carbinol] (first compound 0.002 µM, partner dose 0.8 µM) | 90.8%
2 | C=CCNC1=C2C[C@@H](C)C[C@H](OC)[C@H](O)[C@@H](C)/C=C(\C)[C@H](OC(N)=O)[C@@H](OC)/C=C\C=C(/C)C(=O)NC(=CC1=O)C2=O [Tanespimycin] + CC(=O)c1c(C)c2cnc(Nc3ccc(N4CCNCC4)cn3)nc2n(C2CCCC2)c1=O [palbociclib] (first compound 0.002 µM, partner dose 0.04 µM) | 187%
3 | C#Cc1cccc(Nc2ncnc3cc(OCCOC)c(OCCOC)cc23)c1 [erlotinib] + Cn1c(Nc2ccc(C(F)(F)F)cc2)nc2cc(Oc3ccnc(-c4ncc(C(F)(F)F)[nH]4)c3)ccc21 [CHIR265] (first compound 0.8 µM, partner dose 0.08 µM) | 107%
4 | C#Cc1cccc(Nc2ncnc3cc(OCCOC)c(OCCOC)cc23)c1 [erlotinib] + Cn1nnc2c(C(N)=O)ncn2c1=O [temozolomide] (first compound 0.8 µM, partner dose 2 µM) | 47.4%
5 | Cn1c(Nc2ccc(C(F)(F)F)cc2)nc2cc(Oc3ccnc(-c4ncc(C(F)(F)F)[nH]4)c3)ccc21 + COCC[n+]1c2c(n(Cc3cnccn3)c1C)C(=O)c1ccccc1C2=O [YM155] (first compound 0.08 µM, partner dose 0.0004 µM) | 50.8%
6 | Clc1ccc(Nc2nnc(Cc3ccncc3)c3ccccc23)cc1 [vatalanib] + C#Cc1cccc(Nc2ncnc3cc(OCCOC)c(OCCOC)cc23)c1 [erlotinib] (first compound 2 µM, partner dose 0.8 µM) | 47.4%
7 | C=CCNC1=C2C[C@@H](C)C[C@H](OC)[C@H](O)[C@@H](C)/C=C(\C)[C@H](OC(N)=O)[C@@H](OC)/C=C\C=C(/C)C(=O)NC(=CC1=O)C2=O [Tanespimycin] + CC(C)CCN1c2nc(Nc3cc(F)c(O)c(F)c3)ncc2N(C)C(=O)C1C [BID1870] (first compound 0.002 µM, partner dose 0.2 µM) | 146%
